The source of these data is the supplement of paper PMC12819154, “High-throughput peptide-centric local stability assay extends protein–ligand identification to membrane proteins, tissues and bacteria” (Nature Structural & Molecular Biology, 2025).

Protein sequences, listed by entry. Tags and fused reporters are not part of them. Lines headed by an entry give the natural chain unless they say otherwise; changes in a name come on top.
UniProt Q91XL9, whole entry: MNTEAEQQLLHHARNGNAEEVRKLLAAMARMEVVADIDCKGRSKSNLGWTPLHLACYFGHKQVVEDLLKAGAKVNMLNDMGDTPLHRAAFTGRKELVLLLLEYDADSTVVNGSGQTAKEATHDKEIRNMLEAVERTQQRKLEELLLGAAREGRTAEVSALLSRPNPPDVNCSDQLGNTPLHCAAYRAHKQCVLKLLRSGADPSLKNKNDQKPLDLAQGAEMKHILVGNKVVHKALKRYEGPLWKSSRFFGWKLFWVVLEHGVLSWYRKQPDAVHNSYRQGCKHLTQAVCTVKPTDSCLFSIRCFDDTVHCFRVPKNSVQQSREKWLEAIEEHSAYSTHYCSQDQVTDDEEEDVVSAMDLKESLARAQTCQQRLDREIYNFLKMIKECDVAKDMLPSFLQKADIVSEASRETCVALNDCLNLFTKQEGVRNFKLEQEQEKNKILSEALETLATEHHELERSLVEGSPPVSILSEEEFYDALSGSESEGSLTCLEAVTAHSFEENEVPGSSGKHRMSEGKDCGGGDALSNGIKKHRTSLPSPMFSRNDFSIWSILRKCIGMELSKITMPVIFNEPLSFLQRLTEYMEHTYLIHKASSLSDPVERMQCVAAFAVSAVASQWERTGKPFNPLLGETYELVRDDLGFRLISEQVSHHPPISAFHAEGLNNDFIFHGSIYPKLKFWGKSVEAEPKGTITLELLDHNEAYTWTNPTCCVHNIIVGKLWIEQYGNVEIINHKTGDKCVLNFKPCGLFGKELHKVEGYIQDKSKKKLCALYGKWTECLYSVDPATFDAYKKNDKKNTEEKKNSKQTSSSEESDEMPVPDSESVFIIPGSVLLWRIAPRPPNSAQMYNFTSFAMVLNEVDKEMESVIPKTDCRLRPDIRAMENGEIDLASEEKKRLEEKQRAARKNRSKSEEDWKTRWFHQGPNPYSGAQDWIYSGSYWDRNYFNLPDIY
UniProt Q8VHG0: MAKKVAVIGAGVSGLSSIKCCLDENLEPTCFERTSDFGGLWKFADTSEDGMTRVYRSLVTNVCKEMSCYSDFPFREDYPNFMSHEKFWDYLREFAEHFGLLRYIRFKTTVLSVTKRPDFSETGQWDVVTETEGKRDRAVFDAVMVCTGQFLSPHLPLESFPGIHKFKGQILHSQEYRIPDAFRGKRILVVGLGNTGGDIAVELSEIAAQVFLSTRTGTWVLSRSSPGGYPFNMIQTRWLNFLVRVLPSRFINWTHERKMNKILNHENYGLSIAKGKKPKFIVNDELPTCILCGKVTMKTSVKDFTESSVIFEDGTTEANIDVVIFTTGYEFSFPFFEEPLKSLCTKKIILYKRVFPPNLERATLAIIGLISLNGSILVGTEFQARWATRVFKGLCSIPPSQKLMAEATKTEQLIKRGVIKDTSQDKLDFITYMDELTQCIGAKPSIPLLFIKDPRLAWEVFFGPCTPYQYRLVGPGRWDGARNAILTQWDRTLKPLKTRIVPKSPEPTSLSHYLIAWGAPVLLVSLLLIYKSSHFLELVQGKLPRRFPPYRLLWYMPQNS
UniProt Q91W61: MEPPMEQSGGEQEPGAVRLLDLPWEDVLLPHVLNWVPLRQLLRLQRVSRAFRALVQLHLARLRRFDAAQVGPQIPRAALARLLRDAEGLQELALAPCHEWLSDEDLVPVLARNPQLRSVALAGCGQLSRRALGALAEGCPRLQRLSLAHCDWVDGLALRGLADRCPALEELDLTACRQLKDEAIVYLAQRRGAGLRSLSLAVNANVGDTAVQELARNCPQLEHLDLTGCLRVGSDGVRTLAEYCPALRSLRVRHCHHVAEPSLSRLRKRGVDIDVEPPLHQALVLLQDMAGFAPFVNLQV
UniProt Q91V12: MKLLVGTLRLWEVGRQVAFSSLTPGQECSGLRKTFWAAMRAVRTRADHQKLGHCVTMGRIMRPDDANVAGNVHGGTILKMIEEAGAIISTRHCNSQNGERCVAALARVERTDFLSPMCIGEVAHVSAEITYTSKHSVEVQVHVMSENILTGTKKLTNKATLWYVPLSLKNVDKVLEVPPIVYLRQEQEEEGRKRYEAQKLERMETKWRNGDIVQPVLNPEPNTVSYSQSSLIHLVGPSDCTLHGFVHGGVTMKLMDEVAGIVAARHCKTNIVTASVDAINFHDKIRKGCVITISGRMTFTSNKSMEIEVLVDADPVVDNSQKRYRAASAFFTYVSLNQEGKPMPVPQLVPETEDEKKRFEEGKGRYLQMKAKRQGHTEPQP
UniProt Q91X96: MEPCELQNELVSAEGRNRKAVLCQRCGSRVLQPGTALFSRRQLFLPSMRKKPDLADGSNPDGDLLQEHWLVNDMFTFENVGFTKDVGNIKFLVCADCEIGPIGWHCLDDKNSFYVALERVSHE
UniProt Q91V92: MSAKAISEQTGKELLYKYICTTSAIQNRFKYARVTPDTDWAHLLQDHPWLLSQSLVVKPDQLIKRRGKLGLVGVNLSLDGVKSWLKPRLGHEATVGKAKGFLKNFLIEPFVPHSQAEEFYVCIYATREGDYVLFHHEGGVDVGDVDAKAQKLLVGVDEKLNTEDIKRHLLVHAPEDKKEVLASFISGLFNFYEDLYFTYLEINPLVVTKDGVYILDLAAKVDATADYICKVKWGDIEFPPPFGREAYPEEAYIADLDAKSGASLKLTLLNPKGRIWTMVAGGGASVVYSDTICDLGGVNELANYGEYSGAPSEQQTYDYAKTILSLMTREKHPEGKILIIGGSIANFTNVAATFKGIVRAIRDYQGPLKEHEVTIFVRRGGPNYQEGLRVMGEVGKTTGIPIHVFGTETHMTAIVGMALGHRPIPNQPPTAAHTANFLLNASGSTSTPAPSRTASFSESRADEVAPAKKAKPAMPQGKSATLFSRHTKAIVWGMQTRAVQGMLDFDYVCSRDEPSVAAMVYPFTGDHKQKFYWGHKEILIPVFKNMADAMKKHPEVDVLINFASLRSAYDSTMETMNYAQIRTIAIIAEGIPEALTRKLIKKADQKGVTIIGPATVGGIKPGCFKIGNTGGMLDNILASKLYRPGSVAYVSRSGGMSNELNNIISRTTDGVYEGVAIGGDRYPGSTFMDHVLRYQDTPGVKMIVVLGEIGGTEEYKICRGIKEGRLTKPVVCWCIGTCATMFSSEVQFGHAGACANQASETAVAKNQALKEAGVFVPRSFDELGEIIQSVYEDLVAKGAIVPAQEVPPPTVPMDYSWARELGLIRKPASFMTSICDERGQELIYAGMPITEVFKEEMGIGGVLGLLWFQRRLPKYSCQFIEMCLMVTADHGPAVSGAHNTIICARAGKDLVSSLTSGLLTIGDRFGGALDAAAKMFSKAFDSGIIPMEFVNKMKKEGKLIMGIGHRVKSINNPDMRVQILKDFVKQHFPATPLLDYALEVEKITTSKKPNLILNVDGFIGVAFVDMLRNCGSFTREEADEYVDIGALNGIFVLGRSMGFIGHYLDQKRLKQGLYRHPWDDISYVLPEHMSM
UniProt Q91V36: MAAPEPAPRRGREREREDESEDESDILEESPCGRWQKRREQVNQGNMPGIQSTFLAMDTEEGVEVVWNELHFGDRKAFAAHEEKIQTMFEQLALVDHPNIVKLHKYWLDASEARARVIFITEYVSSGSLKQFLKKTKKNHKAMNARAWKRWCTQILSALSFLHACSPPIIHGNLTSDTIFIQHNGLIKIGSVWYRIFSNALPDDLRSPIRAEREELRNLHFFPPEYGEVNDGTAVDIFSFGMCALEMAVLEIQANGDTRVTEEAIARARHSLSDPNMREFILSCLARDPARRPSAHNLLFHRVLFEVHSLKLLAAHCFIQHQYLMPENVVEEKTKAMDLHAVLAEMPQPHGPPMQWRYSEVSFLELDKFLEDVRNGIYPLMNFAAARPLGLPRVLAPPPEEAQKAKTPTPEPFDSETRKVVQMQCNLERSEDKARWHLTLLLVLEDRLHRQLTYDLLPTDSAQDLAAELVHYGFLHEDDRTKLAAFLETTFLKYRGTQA
UniProt Q91YQ5: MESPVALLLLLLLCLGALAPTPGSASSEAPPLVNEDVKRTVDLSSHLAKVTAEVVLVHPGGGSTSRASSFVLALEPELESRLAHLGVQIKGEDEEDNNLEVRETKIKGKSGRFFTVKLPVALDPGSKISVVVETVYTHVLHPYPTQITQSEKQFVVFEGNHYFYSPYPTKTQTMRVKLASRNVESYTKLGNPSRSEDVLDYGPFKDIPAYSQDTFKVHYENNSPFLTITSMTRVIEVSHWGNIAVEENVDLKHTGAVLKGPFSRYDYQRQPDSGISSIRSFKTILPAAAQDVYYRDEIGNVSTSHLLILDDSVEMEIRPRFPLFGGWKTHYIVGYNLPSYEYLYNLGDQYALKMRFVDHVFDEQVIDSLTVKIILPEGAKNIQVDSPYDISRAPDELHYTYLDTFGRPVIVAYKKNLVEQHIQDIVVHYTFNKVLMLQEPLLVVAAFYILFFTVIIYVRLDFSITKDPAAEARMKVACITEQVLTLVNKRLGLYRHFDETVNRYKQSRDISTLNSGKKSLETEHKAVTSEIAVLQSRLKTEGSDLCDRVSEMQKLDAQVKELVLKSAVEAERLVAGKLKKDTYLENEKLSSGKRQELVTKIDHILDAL
UniProt Q91X44: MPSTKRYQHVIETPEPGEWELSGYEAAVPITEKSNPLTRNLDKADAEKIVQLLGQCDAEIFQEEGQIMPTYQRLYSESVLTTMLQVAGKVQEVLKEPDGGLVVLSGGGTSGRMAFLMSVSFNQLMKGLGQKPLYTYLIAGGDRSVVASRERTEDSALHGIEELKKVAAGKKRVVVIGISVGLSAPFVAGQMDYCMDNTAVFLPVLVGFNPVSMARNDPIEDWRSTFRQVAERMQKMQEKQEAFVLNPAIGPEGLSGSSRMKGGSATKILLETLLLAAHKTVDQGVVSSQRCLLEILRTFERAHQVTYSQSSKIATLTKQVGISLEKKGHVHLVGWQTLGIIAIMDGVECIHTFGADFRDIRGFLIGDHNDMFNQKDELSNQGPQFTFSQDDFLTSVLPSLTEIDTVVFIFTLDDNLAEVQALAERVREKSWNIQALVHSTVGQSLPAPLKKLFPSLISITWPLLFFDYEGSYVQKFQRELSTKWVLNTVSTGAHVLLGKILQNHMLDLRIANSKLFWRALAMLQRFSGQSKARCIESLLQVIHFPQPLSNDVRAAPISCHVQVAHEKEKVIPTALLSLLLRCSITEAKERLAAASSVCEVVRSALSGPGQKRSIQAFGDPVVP
UniProt Q91VU8: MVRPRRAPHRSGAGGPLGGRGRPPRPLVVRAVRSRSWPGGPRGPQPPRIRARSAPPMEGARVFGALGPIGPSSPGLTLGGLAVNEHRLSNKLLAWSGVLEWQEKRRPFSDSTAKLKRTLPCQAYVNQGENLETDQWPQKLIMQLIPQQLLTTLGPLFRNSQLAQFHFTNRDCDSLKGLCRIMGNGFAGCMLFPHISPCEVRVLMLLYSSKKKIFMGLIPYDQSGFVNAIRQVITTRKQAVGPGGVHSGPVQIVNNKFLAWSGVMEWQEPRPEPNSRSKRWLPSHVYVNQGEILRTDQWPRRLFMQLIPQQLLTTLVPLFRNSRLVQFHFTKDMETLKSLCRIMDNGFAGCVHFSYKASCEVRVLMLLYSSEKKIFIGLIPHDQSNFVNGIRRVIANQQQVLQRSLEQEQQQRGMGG
UniProt Q91YS8: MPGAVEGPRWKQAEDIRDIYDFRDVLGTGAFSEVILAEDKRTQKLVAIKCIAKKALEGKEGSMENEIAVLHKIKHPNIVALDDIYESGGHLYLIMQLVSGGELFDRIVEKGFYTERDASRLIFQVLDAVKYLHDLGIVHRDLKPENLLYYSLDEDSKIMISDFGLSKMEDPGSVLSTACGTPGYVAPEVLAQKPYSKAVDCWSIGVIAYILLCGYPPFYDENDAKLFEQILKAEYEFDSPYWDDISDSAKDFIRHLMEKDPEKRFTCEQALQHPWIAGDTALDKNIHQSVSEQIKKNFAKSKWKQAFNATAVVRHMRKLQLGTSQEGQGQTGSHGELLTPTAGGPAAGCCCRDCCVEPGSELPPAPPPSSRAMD
UniProt Q91Z49: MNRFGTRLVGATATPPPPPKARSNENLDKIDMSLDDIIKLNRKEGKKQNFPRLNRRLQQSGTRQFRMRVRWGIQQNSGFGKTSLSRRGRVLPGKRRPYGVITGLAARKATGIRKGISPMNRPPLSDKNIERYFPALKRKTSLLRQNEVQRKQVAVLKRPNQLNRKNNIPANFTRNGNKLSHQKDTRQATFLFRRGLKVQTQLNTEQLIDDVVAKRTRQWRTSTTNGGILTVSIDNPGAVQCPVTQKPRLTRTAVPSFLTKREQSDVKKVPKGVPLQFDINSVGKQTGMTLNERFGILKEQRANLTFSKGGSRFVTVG

The list shows a part of the results. Most values lie at the level of the controls, where differences are scatter.

Compound in this assay: CN[C@@H]1C[C@H]2O[C@@](C)([C@@H]1OC)n1c3ccccc3c3c4c(c5c6ccccc6n2c5c31)C(=O)NC4 [staurosporine]
Kind of assay: log2 fold change of tryptic peptide abundance, ligand vs vehicle (limited proteolysis) (log2 ratio); higher = more trypsin-susceptible (destabilized). Conditions: ligand concentration: 20 uM; sample: mouse liver crude lysate; replicate design: treated separately.
Regarding “UniProt Q91XL9 (peptide sequence: CVLNFKPCGLFGK, peptide start residue: 739)”, the log2 fold change is 0.374.
Turning to “UniProt Q8VHG0 (peptide sequence: ILNHENYGLSIAK, peptide start residue: 262)”, the log2 fold change was -0.332.
Turning to “UniProt Q91W61 (peptide sequence: ALVQLHLAR, peptide start residue: 53)”, the log2 fold change was 0.397.
Regarding “UniProt Q91V12 (peptide sequence: MIEEAGAIISTR, peptide start residue: 80)”, the log2 fold change stood at 0.154.
On to “UniProt Q91X96 (peptide sequence: KAVLCQR, peptide start residue: 19)”, for which the log2 fold change turned out to be 0.164.
With “UniProt Q91V92 (peptide sequence: EILIPVFK, peptide start residue: 537)”, the log2 fold change is -0.237.
As for “UniProt Q91V36 (peptide sequence: EFILSCLAR, peptide start residue: 279)”, the log2 fold change turned out to be 0.145.
As to “UniProt Q91YQ5 (peptide sequence: TEGSDLCDRVSEMQK, peptide start residue: 540)”, the log2 fold change was -0.32.
In the case of “UniProt Q91X44 (peptide sequence: CLLEILR, peptide start residue: 291)”, the log2 fold change was -0.194.
As for “UniProt Q91VU8 (peptide sequence: SLEQEQQQR, peptide start residue: 404)”, the figure is -0.119; as for “UniProt Q91YS8 (peptide sequence: NIHQSVSEQIKK, peptide start residue: 285)”, -1.38; as for “UniProt Q91Z49 (peptide sequence: TAVPSFLTKR, peptide start residue: 252)”, 0.313.
